Assay results reported in PubChem BioAssay AID1688 (National Center for Advancing Translational Sciences (NCATS), 2009).
About 2,400 (1.1%) of roughly 220,000 compounds were called active. The shares of active, inactive and inconclusive entries below differ from those in the screen. Calls follow the shape of the dose curve; as a rule, active = well fitted inhibition curve with a large enough effect; inconclusive = small, poorly fitted or top-dose-only effect, or effect the other way; inactive = no such curve, though single readings can be large or run the other way. Potencies of inconclusive entries are doubtful fits and often do not repeat.

Experiment: qHTS Multiplex Assay to Identify Dual Action Probes in a Cell Model of Huntington: Aggregate Formation (GFP); also: nearly all actives have a fitted effect of over 60% in size
Conditions: PC12 HttQ103-GFP aggregates, Acumen cytometry, 40 h; activity change, negative = inhibition: at 46.1 µM (top of the series) unless noted
Summary of the method: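 Aggregate formation scored by laser-scanning cytometer (488 excitation, 500–530 emission) in lysed PC12 cells expressing Q103-GFP after 100 nM tebufenozide induction; library tested in dose series, with ATPLite reagent added in the multiplex.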
% is scaled to controls: 0 for no effect and ±100 for the full control effect; potency is read from the fitted curve at half-maximal effect.

With `CC(=O)c1ccccc1OCC(O)CN1CCN(CCN2C(=O)c3cccc4cccc(c34)C2=O)CC1` (stereo not given) as the compound, how does the Potency read?
Its Potency is inconclusive: 28.2 µM [inhibitor, single point].

With `Cc1cc(Br)cc2c(C(=O)Nc3c(C)n(C)n(-c4ccccc4)c3=O)cc(-c3cccs3)nc12` as the compound, how does the Potency read?
Its Potency is inconclusive: 8.91 µM [activator, partial curve].

With `CCOc1cc2[nH]c(=S)n(CCc3ccc(OC)c(OC)c3)c(=O)c2cc1OCC` as the compound, how does the Potency read?
Its Potency is inconclusive: 2 µM [activator, single point].

With `O=C(c1noc2c1CCc1ccccc1-2)N1CCc2ccccc2C1` as the compound, how does the Potency read?
The Potency was inconclusive: 12.6 µM [inhibitor, partial curve].

For `CC(=O)N=Cc1c(C)c(C#N)c(=O)n(C)c1O`, which Potency is on record?
The Potency was “inactive”.

For `O=C1NC(CCc2ccccc2)C(=O)N1CCOc1cccc(Br)c1` (stereo not given), which Potency is on record?
Its Potency is inconclusive: 12.6 µM [inhibitor, single point].

For `Cc1cc(C(=O)N[C@H](c2ccccc2)[C@@]2(C)C[C@@H]2[C@@H](C)C(=O)Nc2ccc3ccccc3c2)no1`, which Potency is on record?
The Potency was inconclusive: 25.1 µM [inhibitor, single point].

Which Potency does the source give for `Cc1ccc(NC(=O)c2cncc(Br)c2)cc1S(=O)(=O)N(C)C` here?
The Potency was inconclusive: 12.6 µM [inhibitor, single point].

With `COc1cc(-c2nc(-c3ccccc3)c(-c3cc([N+](=O)[O-])ccc3C)[nH]2)cc(OC)c1OC` as the compound, how does the Potency read?
The Potency was inconclusive: 17.8 µM [inhibitor, single point].

Which activity change, negative = inhibition does the source give for `CC(/C=C1\SC(=S)N(CCC(=O)Nc2nc(C)cs2)C1=O)=C\c1ccccc1` here?
Its activity change, negative = inhibition is inactive: 17.9% [at 9.22 µM].

For `CC1CCN(C(C(=O)Nc2ccc(C(C)C)cc2)c2ccc3c(c2)OCO3)CC1` (stereo not given), which Potency is on record?
Its Potency is active: 20 µM.

Which Potency does the source give for `CCOc1ccc(-c2ncncc2-c2ccc(OC)cc2)c(O)c1` here?
The Potency was inconclusive: 35.5 µM [inhibitor, single point].

For `CC1(C)Cc2ccccc2-c2nc3ccccc3c(=O)n21`, which Potency is on record?
The Potency was inconclusive: 25.1 µM [inhibitor, single point].

For `Cc1oc2c(c1C(=O)N1CCC(C)CC1)C(=O)c1ccccc1C2=O`, which Potency is on record?
Its Potency is active: 7.08 µM.

With `CC1=C(c2ccc(NN=C(C#N)C#N)cc2)NNC(=O)C1` as the compound, how does the Potency read?
Its Potency is active: 12.6 µM.

With `S=C(NC1CCCCC1)N(CCc1ccccc1)CCc1ccccc1` as the compound, how does the Potency read?
Its Potency is inconclusive: 5.62 µM [inhibitor, single point].

For `Cc1ccc(C)n1-n1cnc2sc(-c3ccccc3)cc2c1=O`, which Potency is on record?
The Potency was inconclusive: 11.2 µM [inhibitor, single point].

For `Cc1ccc(C(=O)NNC(=O)C2CCN(S(=O)(=O)c3ccc(Cl)cc3)CC2)cc1`, which Potency is on record?
The Potency was “inactive”.

Which Potency does the source give for `O=C1CC(c2ccccc2)Cc2nc3nc(C(F)(F)F)nn3cc21` (stereo not given) here?
The Potency was active: 12.6 µM.

Which Potency does the source give for `NC(=O)c1ccc(N2CCCCC2)c(N2C(=O)C3C4C=CC(C4)C3C2=O)c1` (stereo not given) here?
Its Potency is inconclusive: 5.62 µM [activator, single point].

With `COc1cc(/C=C(\C#N)c2nc(-c3cc4ccccc4oc3=O)cs2)ccc1O` as the compound, how does the Potency read?
The Potency was “inactive”.

For `COC(=O)c1ccc(/C=C/C(=O)c2cccc(OC)c2)cc1`, which Potency is on record?
The Potency was inconclusive: 12.6 µM [activator, partial curve].

With `COc1cc(C(=O)ON=C2C(C)=CC(=O)C=C2C)cc(OC)c1OC` as the compound, how does the Potency read?
The Potency was inconclusive: 35.5 µM [inhibitor, single point].

For `O=C(N/N=C/c1cccs1)c1cccc(NC(=O)c2ccc(Cl)cc2)c1`, which Potency is on record?
The Potency was inconclusive: 12.6 µM [inhibitor, partial curve].

With `O=C(CCSc1nc(-c2ccco2)cc(C(F)(F)F)n1)N1CCCc2ccccc21` as the compound, how does the Potency read?
The Potency was inconclusive: 28.2 µM [inhibitor, single point].

With `CCOC(=O)C1=C(C)N(C)C(=S)NC1c1c(OCC)ccc2ccccc12` (stereo not given) as the compound, how does the Potency read?
Its Potency is inconclusive: 31.6 µM [inhibitor, single point].

Which Potency does the source give for `Cc1ccccc1NS(=O)(=O)c1cc(C(=O)Nc2ccccc2-c2ccccc2)ccc1Cl` here?
The Potency was inconclusive: 35.5 µM [inhibitor, single point].

For `CCOc1ccc2nc(SCC(=O)N3CCN(C(=O)c4ccco4)CC3)sc2c1`, which Potency is on record?
Its Potency is “inactive”.

With `O=C(Cn1cc(C(F)(F)F)cc(Cl)c1=O)Nc1cc(S(=O)(=O)N2CCOCC2)ccc1Cl` as the compound, how does the Potency read?
The Potency was inconclusive: 3.16 µM [inhibitor, single point].

Which Potency does the source give for `CCc1cccc(NC(=O)Cn2cc(C=O)c3ccccc32)c1` here?
The Potency was inconclusive: 11.2 µM [inhibitor, single point].

Which Potency does the source give for `COc1ccccc1N1CCN(C(=O)CCc2ccc(S(=O)(=O)NCC(C)C)cc2)CC1` here?
Its Potency is inconclusive: 22.4 µM [inhibitor, single point].

With `O=C(O)C1=C[C@H](c2cccs2)C[C@H](OCCCCO)O1` as the compound, how does the Potency read?
Its Potency is inconclusive: 0.891 µM [activator, partial curve].

With `CCN(CC)c1ccc(/C=N/NC(=O)c2cccc(S(=O)(=O)Nc3ccccc3OC)c2)c(O)c1` as the compound, how does the Potency read?
The Potency was inconclusive: 1.41 µM [inhibitor, full curve].

For `Cc1ccc(Oc2ccc(NC(=O)CCC(=O)OCC(=O)c3cccs3)cc2)cc1C`, which Potency is on record?
Its Potency is “inactive”.

Which Potency does the source give for `O=c1c(Cc2ccc(Cl)cc2)c(O)ccn1Cc1ccccc1` here?
Its Potency is inconclusive: 2.82 µM [inhibitor, partial curve].

With `CN1c2ccccc2-c2nc3ccccc3n2C1c1cccs1` (stereo not given) as the compound, how does the Potency read?
Its Potency is “inactive”.

With `CCOC(=O)c1c(C)oc2c1c(C=NCc1ccccn1)c(O)c1ccccc12` as the compound, how does the Potency read?
Its Potency is inconclusive: 25.1 µM [inhibitor, single point].

Which Potency does the source give for `CCCc1nc2scc(-c3ccc(C)cc3)c2c(=O)n1N` here?
Its Potency is inconclusive: 25.1 µM [inhibitor, single point].

With `C=CCn1c(=O)c(C#N)cc2c(=O)n3ccccc3nc21` as the compound, how does the Potency read?
The Potency was inconclusive: 3.55 µM [inhibitor, single point].

Which activity change, negative = inhibition does the source give for `Cc1ccccc1-c1ncc(CN2CCC(CO)(CCCc3ccccc3)CC2)cn1` here?
Its activity change, negative = inhibition is inactive: 4.14% [at 9.22 µM].

Which Potency does the source give for `CCOc1ccccc1OCCn1ncc2ccc(OC)c(OC)c2c1=O` here?
The Potency was inconclusive: 6.31 µM [activator, single point].

For `COc1ccc(N=c2oc3c(OC)cccc3cc2C(=O)NCc2ccco2)cc1OC`, which Potency is on record?
Its Potency is inconclusive: 6.31 µM [inhibitor, partial curve, poor fit].

For `Cc1ccc(N(CC(=O)N/N=C/c2cccc(Br)c2)S(C)(=O)=O)cc1`, which Potency is on record?
Its Potency is “inactive”.

For `CCOC(=O)C1=C(C)NC(C)=C(C(=O)OCC)C1/C=C/c1ccccc1OC`, which Potency is on record?
Its Potency is inconclusive: 35.5 µM [activator, single point].

With `O=C(Nc1ccc(N2CCOCC2)c(F)c1)c1ccncc1` as the compound, how does the Potency read?
The Potency was active: 2.24 µM.

With `CC(C)NC(=O)CSc1nc(-c2cccs2)cc(-c2ccccc2)c1C#N` as the compound, how does the Potency read?
Its Potency is “inactive”.

With `O=c1oc(-c2ccco2)nc2sc3c(c12)CCCC3` as the compound, how does the Potency read?
The Potency was inconclusive: 5.62 µM [inhibitor, single point].

With `C=C1[C@@H]2CC[C@H](C2)C1(C)C` as the compound, how does the Potency read?
Its Potency is “inactive”.

Which Potency does the source give for `CS(=O)(=O)N(Cc1ccccc1)c1ccc(C(=O)N2CCN(c3cccc(Cl)c3)CC2)cc1` here?
Its Potency is inconclusive: 25.1 µM [inhibitor, partial curve].

With `CC1(C)Cc2c(C#N)c(N3CCN(C(=O)c4ccccc4Cl)CC3)nc(-c3ccco3)c2CS1` as the compound, how does the Potency read?
Its Potency is “inactive”.

For `Cc1ccc(NS(=O)(=O)c2ccc(C(=O)N3CCN(c4ccccn4)CC3)cc2)cc1`, which Potency is on record?
The Potency was active: 11.2 µM.

Which Potency does the source give for `CN(C)CCCN1c2ccccc2Sc2ccc(C(F)(F)F)cc21` here?
Its Potency is “inactive”.

Which Potency does the source give for `Oc1ccc2oc3c(c2c1/C=N/n1cnnc1)CCCC3` here?
The Potency was inconclusive: 6.31 µM [inhibitor, full curve, poor fit].

Which Potency does the source give for `CC1=C(C)C(=O)C(N2CCOCC2)=CC1=O` here?
The Potency was inconclusive: 2.51 µM [activator, single point].

For `CC(=O)Oc1cc2c(cc1Cl)C1(CC(c3ccccc3Cl)O2)CC(C)(C)NC(=S)N1` (stereo not given), which Potency is on record?
Its Potency is inconclusive: 22.4 µM [inhibitor, single point].

With `COc1cccc(-c2nnc(NC(=O)c3ccc(S(=O)(=O)N(CC(C)C)CC(C)C)cc3)o2)c1` as the compound, how does the Potency read?
The Potency was active: 5.01 µM.

With `O=C(NN1CCOCC1)c1cccc(COc2cccc(Br)c2)c1` as the compound, how does the Potency read?
Its Potency is “inactive”.

Which Potency does the source give for `NS(=O)(=O)c1ccc(NC(=S)NC(=O)c2ccc3c(c2)OCO3)cc1` here?
The Potency was “inactive”.

For `CC1=C(C(=O)Nc2ccccn2)C(c2ccccc2Cl)NC(=S)N1` (stereo not given), which Potency is on record?
Its Potency is “inactive”.

Which Potency does the source give for `CC(=O)CSc1nnc(Cc2ccc3c(c2)OCO3)o1` here?
The Potency was “inactive”.

With `Nc1cc(S(=O)(=O)N2CCCCC2)ccc1Oc1ccc(Cl)cc1` as the compound, how does the Potency read?
The Potency was inconclusive: 22.4 µM [inhibitor, single point].

With `CCC(Oc1ccccc1)C(=O)Nc1ccc(S(=O)(=O)NCC2CCCO2)cc1` (stereo not given) as the compound, how does the Potency read?
Its Potency is inconclusive: 17.8 µM [inhibitor, single point].

For `OC(COC(c1ccc(Cl)cc1)c1ccc(Cl)cc1)CN1CCN(c2ccccn2)CC1` (stereo not given), which Potency is on record?
The Potency was active: 31.6 µM.

With `CCNCCC(=O)N1c2ccccc2Sc2ccc(NC(=O)OCC)cc21` as the compound, how does the Potency read?
The Potency was inconclusive: 25.1 µM [inhibitor, single point].

For `O=C(c1ccc(S(=O)(=O)c2ccccc2Cl)c([N+](=O)[O-])c1)N1CCCCCC1`, which Potency is on record?
Its Potency is inconclusive: 35.5 µM [inhibitor, single point].

For `N#Cc1c(N)nc2c(c1-c1ccc(Br)s1)CCCC2`, which Potency is on record?
Its Potency is inconclusive: 3.16 µM [inhibitor, single point].

With `N#CCCN(C(=O)CCl)c1cccc(Cl)c1` as the compound, how does the Potency read?
Its Potency is active: 17.8 µM.

For `CC1CC(CN)CC(CO)C1` (stereo not given), which activity change, negative = inhibition is on record?
Its activity change, negative = inhibition is inactive: 15.8% [at 9.22 µM].

Which Potency does the source give for `Cn1cccc1Cc1nnc(SCC(=O)Nc2nccs2)n1CCc1ccccc1` here?
The Potency was inconclusive: 8.91 µM [activator, partial curve].

With `CC(C)OC(=O)Nc1ccc(-c2ccc(NC(=O)OC(C)C)cc2Cl)c(Cl)c1` as the compound, how does the activity change, negative = inhibition read?
Its activity change, negative = inhibition is inactive: 25.1% [at 9.22 µM].
